Test results: the supplement of paper PMC7877785
± gives the uncertainty stated by the source. Many of these values have a large error.

Test: self-splicing fitness, log relative to wild type (ln ratio); higher = more splicing; Tetrahymena group I intron in knt gene, E. coli kanamycin selection, DiMSum; sequences stand for … in CUCUCU…GGAGGGAAAAGUUAUCAGGCAUGCACCUGGUAGCUAGUCUUUAAACCAAUAGAUUGCAUCGGUUUAAAAGGCAAGACCGUCAAAUUGCGGGAAAGGGGUCAACAGCCGUUCAGUACCAAGUCUCAGGGGAAACUUUGAGAUGGCCUUGCAAAGGGUAUGGUAAUAAGCUGACGGACAUGGUCCUAACCACGCAGCCAAGUCCUAAGUCAACAGAUCUUCUGUUGAUAUGGAUGCAGUUCACAGACUAAAUGUCGGUCGGGGAAGAUGUAUUCUUCUCAUAAGAUAUAGUCGGACCUCUCCUUAAUGGGAGCUAGCGGAUGAAGUGAUGCAACACUGGAGCCGCUGGGAACUAAUUUGUAUGCGAAAGUAUAUUGAUUAGUUUUGGAGUACUCGUGGUCG
Procedure, shortened: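 The eight P1ex-region nucleotides of an intron in the knt kanamycin-resistance gene on pET-22b(+) were all randomised and the library put into E. coli BL21(DE3). Six replicate transformations were grown overnight at 37°C or 30°C on LB agar with or without 25 μg/mL kanamycin, together with 100 μg/mL carbenicillin, 50 μM IPTG and 0.2% rhamnose. Colonies were pooled and amplicon-sequenced on an Illumina HiSeq 2500. Fitness from DiMSum is the error-weighted combination of wild-type-normalised replicate fold changes, kanamycin over none.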

| Sequence | self-splicing fitness (ln) (30 °C) | self-splicing fitness (ln) (37 °C) |
| --- | --- | --- |
| UGCGAGCAAUAUUACGCAGC | -4.38 ± 0.51 | – |
| UCACAGCAAUAUUACGGACC | -3.6 ± 0.78 | – |
| ACAUAGCAAUAUUACGGCUG | -0.175 ± 0.067 | -0.366 ± 0.095 |
| ACGCAGCAAUAUUACGGGCC | -1.28 ± 0.091 | -0.893 ± 0.12 |
| ACAGAGCAAUAUUACGCAAG | -3.99 ± 0.39 | -2.33 ± 0.25 |
| UCAGAGCAAUAUUACGCAUA | – | -2.64 ± 0.66 |
| CUUUAGCAAUAUUACGCCCC | – | -1.79 ± 0.67 |
| GCGUAGCAAUAUUACGACGC | – | -2.25 ± 0.54 |
| UAGCAGCAAUAUUACGUGCG | -0.801 ± 0.076 | 0.26 ± 0.081 |
| UUAUAGCAAUAUUACGCUAC | -3.9 ± 0.6 | – |
| GGAGAGCAAUAUUACGUGGC | -4.96 ± 0.71 | – |
| GAGGAGCAAUAUUACGACCG | -3.94 ± 0.73 | – |
| CAUGAGCAAUAUUACGAGCU | – | -2.7 ± 0.61 |
| GAACAGCAAUAUUACGGAGC | -1.93 ± 0.057 | -1.13 ± 0.083 |
| UUAGAGCAAUAUUACGGUCC | – | -2.47 ± 1.1 |
| CUACAGCAAUAUUACGCCUU | -2.27 ± 0.2 | -1.4 ± 0.31 |
| GUUUAGCAAUAUUACGCCGA | – | -1.78 ± 0.58 |
| CCGAAGCAAUAUUACGACAU | -3.977 ± 0.028 | -2.82 ± 0.04 |
| ACGGAGCAAUAUUACGAAGU | -5.18 ± 1 | -3.86 ± 0.73 |
| CAUGAGCAAUAUUACGUCAA | -4.04 ± 0.33 | -2.64 ± 0.33 |
| CGACAGCAAUAUUACGCCAC | -2.95 ± 1.1 | – |
| CAUAAGCAAUAUUACGUGGC | -5.5 ± 1 | – |
| CAGCAGCAAUAUUACGGAAG | -0.307 ± 0.054 | -0.29 ± 0.068 |
| UCCAAGCAAUAUUACGUCGU | -0.899 ± 0.073 | -0.178 ± 0.085 |

Part of the list above, set out differently:
GAGGAGCAAUAUUACGACCG
  self-splicing fitness (ln) (30 °C): -3.94 ± 0.73
CAUGAGCAAUAUUACGAGCU
  self-splicing fitness (ln) (37 °C): -2.7 ± 0.61
GAACAGCAAUAUUACGGAGC
  self-splicing fitness (ln) (30 °C): -1.93 ± 0.057; self-splicing fitness (ln) (37 °C): -1.13 ± 0.083

Additional entries follow:

| Sequence | self-splicing fitness (ln) (30 °C) | self-splicing fitness (ln) (37 °C) |
| --- | --- | --- |
| CGGAAGCAAUAUUACGACAC | -2.62 ± 1.1 | – |
| UCCGAGCAAUAUUACGCGAC | -2.63 ± 0.41 | -1.58 ± 0.4 |
| GGGCAGCAAUAUUACGGGUA | -2.25 ± 0.55 | – |
| GAGUAGCAAUAUUACGCUAC | -2.49 ± 0.66 | -0.778 ± 1.4 |
| GGCGAGCAAUAUUACGCACC | -1.44 ± 0.51 | – |
| CGAGAGCAAUAUUACGCGGC | -2.67 ± 0.62 | – |
| CCAGAGCAAUAUUACGGAUC | – | -1.1 ± 0.59 |
| GCCAAGCAAUAUUACGUCGG | -2.95 ± 0.18 | -2.28 ± 0.24 |
| UGGGAGCAAUAUUACGUAGC | – | -3.17 ± 0.61 |
| UUGCAGCAAUAUUACGUGGC | -5.61 ± 0.71 | – |
| GAAGAGCAAUAUUACGGUGU | -3.49 ± 0.14 | -3.02 ± 0.23 |
| CAUGAGCAAUAUUACGAAGU | – | -3.26 ± 0.73 |
| UGGGAGCAAUAUUACGCUCU | -3.69 ± 0.62 | -2.65 ± 0.61 |
| UGGAAGCAAUAUUACGUCCA | – | -2.09 ± 0.64 |
| CGGCAGCAAUAUUACGGCGC | -2.64 ± 0.27 | -2.53 ± 0.24 |
| GCAGAGCAAUAUUACGCGCU | -4.12 ± 0.73 | – |
| AUUUAGCAAUAUUACGCCUC | -3.5 ± 1 | – |
| GGGGAGCAAUAUUACGAGCA | – | -1.4 ± 0.55 |
| AGACAGCAAUAUUACGUAGU | -3.27 ± 0.1 | -1.88 ± 0.1 |
| UUACAGCAAUAUUACGCUCU | -1.01 ± 0.074 | -0.47 ± 0.087 |
| UGCGAGCAAUAUUACGUCAA | -4.58 ± 1 | – |
| UCUGAGCAAUAUUACGUUCG | -4.14 ± 0.73 | -2.76 ± 1.1 |
| AUUAAGCAAUAUUACGGGCC | -0.135 ± 0.87 | -0.681 ± 1.4 |
| UACGAGCAAUAUUACGAAUA | -3.28 ± 0.47 | -2.87 ± 0.48 |

Some values from above:
self-splicing fitness (ln) (30 °C) with GGGCAGCAAUAUUACGGGUA is entered as -2.25 ± 0.55
self-splicing fitness (ln) (30 °C) with AUUUAGCAAUAUUACGCCUC is entered as -3.5 ± 1
self-splicing fitness (ln) (30 °C) with GAAGAGCAAUAUUACGGUGU is entered as -3.49 ± 0.14
self-splicing fitness (ln) (30 °C) with GGCGAGCAAUAUUACGCACC is entered as -1.44 ± 0.51

Further records follow.

| Sequence | self-splicing fitness (ln) (30 °C) | self-splicing fitness (ln) (37 °C) |
| --- | --- | --- |
| UCAAAGCAAUAUUACGAGCC | – | -3.03 ± 0.74 |
| CGGGAGCAAUAUUACGAGGC | -4.57 ± 1 | -1.92 ± 0.51 |
| CUGUAGCAAUAUUACGAACA | – | -2.63 ± 0.54 |
| UCUUAGCAAUAUUACGACCA | – | -1.33 ± 0.62 |
| CGGGAGCAAUAUUACGUCCU | – | -2.06 ± 0.51 |
| UGCGAGCAAUAUUACGAAUA | -3.67 ± 0.61 | -2.79 ± 0.74 |
| UCGGAGCAAUAUUACGGAAU | -3.86 ± 1 | – |
| UAUUAGCAAUAUUACGAGAC | – | -1.9 ± 0.58 |
| UGGGAGCAAUAUUACGUUCC | – | -2.72 ± 1.1 |
| GGAGAGCAAUAUUACGGAAC | -2.53 ± 0.79 | – |
| GCAUAGCAAUAUUACGCCUU | -4.54 ± 0.51 | – |
| UACGAGCAAUAUUACGCUGC | -3.07 ± 1.1 | – |
| CUCUAGCAAUAUUACGCAAA | -3.54 ± 0.73 | -2.39 ± 0.77 |
| GGUCAGCAAUAUUACGGCGA | 0.307 ± 0.14 | 0.838 ± 0.14 |
| UCAAAGCAAUAUUACGAUAA | -1.43 ± 0.11 | -0.335 ± 0.13 |
| GUUGAGCAAUAUUACGGUUU | -4.2 ± 0.33 | -2.73 ± 0.32 |
| GGAUAGCAAUAUUACGCAGG | -5.14 ± 1 | -2.57 ± 0.54 |
| CUGGAGCAAUAUUACGAUAA | -1.36 ± 0.6 | -1.09 ± 0.64 |
| CCUAAGCAAUAUUACGCAAG | – | -2.05 ± 0.5 |
| UUGGAGCAAUAUUACGAUAG | – | -1.36 ± 0.61 |
| UAUGAGCAAUAUUACGAACU | -3.91 ± 0.6 | – |
| GACUAGCAAUAUUACGGCAA | -0.738 ± 0.08 | -0.302 ± 0.09 |
| GUGGAGCAAUAUUACGGACG | -1.96 ± 0.87 | -3.77 ± 1 |
| CUCCAGCAAUAUUACGUAAA | -3.45 ± 0.17 | -2.17 ± 0.18 |

| Sequence | self-splicing fitness (ln) (30 °C) | self-splicing fitness (ln) (37 °C) |
| --- | --- | --- |
| CGAAAGCAAUAUUACGCGUC | -3.68 ± 0.62 | – |
| UAGUAGCAAUAUUACGCUAC | – | -1.71 ± 0.64 |
| UCUGAGCAAUAUUACGCCUC | -2.94 ± 1.1 | -0.681 ± 1 |
| ACGGAGCAAUAUUACGACAA | -2.36 ± 1.2 | – |
| AUGUAGCAAUAUUACGUGGU | -4.5 ± 0.58 | – |
| UUGCAGCAAUAUUACGAAAG | -4.21 ± 0.52 | – |
| UCUGAGCAAUAUUACGCUGU | -2 ± 0.23 | -1.07 ± 0.19 |
| CGUCAGCAAUAUUACGAAAA | -3.68 ± 0.6 | -1.47 ± 0.55 |
| UCGAAGCAAUAUUACGAACC | -3.31 ± 1 | -2.74 ± 0.61 |
| CCCGAGCAAUAUUACGCGCC | -4.59 ± 0.58 | – |
| UAGUAGCAAUAUUACGCAGC | – | -2.5 ± 0.5 |
| UUAAAGCAAUAUUACGUGGC | -3.08 ± 0.15 | -2.98 ± 0.3 |
| UCGGAGCAAUAUUACGCAAC | -3.76 ± 0.62 | -3.18 ± 1 |
| ACCCAGCAAUAUUACGUUUA | -1.57 ± 0.066 | -1.01 ± 0.072 |
| UUAGAGCAAUAUUACGCUCG | – | -0.26 ± 0.54 |
| GCAGAGCAAUAUUACGAUCU | -3.66 ± 1 | -1.41 ± 0.51 |
| CGCGAGCAAUAUUACGCCGA | -2.95 ± 0.75 | -2.65 ± 0.53 |
| UGUGAGCAAUAUUACGGAGU | -2.92 ± 0.56 | -2.9 ± 0.53 |
| AUUGAGCAAUAUUACGCGCC | – | -2.47 ± 1.1 |
| UUCUAGCAAUAUUACGCCAU | – | -3.35 ± 0.52 |
| CUGAAGCAAUAUUACGGAAC | -4.55 ± 0.52 | – |
| UGCCAGCAAUAUUACGGAAC | – | -3.1 ± 0.6 |
| CCUGAGCAAUAUUACGCUUG | -4.16 ± 0.72 | – |
| CUUUAGCAAUAUUACGGUGA | -4.42 ± 0.51 | – |

| Sequence | self-splicing fitness (ln) (30 °C) | self-splicing fitness (ln) (37 °C) |
| --- | --- | --- |
| CCGGAGCAAUAUUACGCUGG | – | -2.13 ± 0.5 |
| CUAAAGCAAUAUUACGGCUG | 0.0357 ± 0.069 | -0.0492 ± 0.089 |
| GUCGAGCAAUAUUACGCAUA | -2.14 ± 0.18 | -1.6 ± 0.16 |
| UCAAAGCAAUAUUACGCGAG | -0.91 ± 0.12 | -0.54 ± 0.14 |
| CGGGAGCAAUAUUACGUAAA | – | -2.13 ± 0.58 |
| UGUAAGCAAUAUUACGUUGC | – | -3.08 ± 0.53 |
| ACGGAGCAAUAUUACGGGGG | -3.87 ± 0.52 | – |
| CUCUAGCAAUAUUACGACCA | -3.59 ± 0.53 | -3.79 ± 0.51 |
| AAAUAGCAAUAUUACGAAAA | -2.66 ± 0.35 | -1.47 ± 0.22 |
| GAAAAGCAAUAUUACGCUCC | -2.68 ± 0.55 | -3.37 ± 1 |
| AGUUAGCAAUAUUACGCGCC | -1.44 ± 0.58 | -0.534 ± 0.72 |
| UGGUAGCAAUAUUACGGAGC | -4.04 ± 1.1 | – |
| CUAAAGCAAUAUUACGGACC | – | -1.98 ± 0.69 |
| GGUCAGCAAUAUUACGAGGG | -4.23 ± 0.51 | – |
| CCGAAGCAAUAUUACGGGGA | -3.16 ± 0.19 | -2.96 ± 0.19 |
| AGCUAGCAAUAUUACGUCAC | -4.86 ± 0.51 | – |
| GACGAGCAAUAUUACGUGUC | -4.29 ± 0.59 | – |
| GAGGAGCAAUAUUACGUUCC | -4.08 ± 0.73 | – |
| UUGUAGCAAUAUUACGAACC | – | -2.39 ± 1.1 |
| CAUUAGCAAUAUUACGCCGC | – | -2.52 ± 1.1 |
| CAUAAGCAAUAUUACGUUGG | -2.6 ± 0.095 | -1.26 ± 0.094 |
